Measurements taken from PubChem BioAssay AID504444 (National Center for Advancing Translational Sciences (NCATS), 2011).
The whole screen tested about 360,000 compounds, of which about 7,500 (2.1%) were called active. Inconclusive results, whose numbers are uncertain, are shown with a selection of clear calls. Calls come from the whole dose curve; as a rule, active = well fitted inhibition curve with a large enough effect; inconclusive = small, poorly fitted or top-dose-only effect, or effect the other way; inactive = flat fitted curve, though single readings scatter. Potencies beside an inconclusive call are fits to weak or partial responses and may not hold up.

Assay: Nrf2 qHTS screen for inhibitors; note: nearly all actives have a fitted effect of over 60% in size
Settings: A549 ARE-Fluc reporter, luciferase luminescence, 18-24 h; activity change, negative = inhibition: at 46 µM (top of the series)
Outline: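 Reporter: ARE-Fluc in A549. Exposure: 18-24 h, 37 °C, 5% CO2, 5% FBS OPTI-MEM. Readouts: fluorescent cytotoxicity (CellTiter-Fluor), then luminescent Nrf2 signal after BugLite.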
% is set by controls: 0 for no effect and ±100 for the full control effect; potency is the fitted concentration of half-maximal effect.

| SMILES | Potency | activity change, negative = inhibition |
| --- | --- | --- |
| N/C(=N\OC(=O)COc1ccc2ccccc2c1Br)c1ccccn1 | inconclusive: 13 µM [activator, partial curve] | – |
| CC(C)Cn1cc(NC(=O)N2CCN(c3ccccc3F)CC2)c2ccccc2c1=O | inconclusive: 16.4 µM [activator, partial curve, poor fit] | – |
| O=Cc1c[nH]c2ccccc12 | – | inactive: 6.54% |
| O=S(=O)(c1ccccc1)N1CCN(Cc2ccccc2)CC1 | inactive | – |
| Cc1cccc(C)c1Nc1c(-c2ccsc2)nc2ccc(Cl)cn12 | – | inactive: -17.9% |
| O=C(COc1ccc(Cl)cc1)OCc1ccc(Cl)cc1 | – | inactive: 1.17% |
| CNc1cc(CSC)nc(SCc2ccc(Cl)cc2Cl)n1 | inconclusive: 18.4 µM [falling, single point] | – |
| COc1ccc(CCN(C)C(=S)NC(=O)c2ccc(F)cc2Cl)cc1OC | inconclusive: 25.9 µM [falling, single point] | – |
| CC(C)C(=O)NC(c1ccccc1)c1cc([N+](=O)[O-])c2cccnc2c1O (centres undefined) | inconclusive: 29.1 µM [falling, single point] | – |
| C=CCSc1nnc(-c2ccc([N+](=O)[O-])cc2)o1 | inconclusive: 11.6 µM [activator, partial curve, poor fit] | – |
| CCOc1ccc(C2=CSC3=NCCN23)cc1[N+](=O)[O-] | inconclusive: 6.51 µM [falling, single point] | – |
| COc1cccc(/C=N/Nc2ncnc(N)c2[N+](=O)[O-])c1OC | inconclusive: 0.291 µM [activator, partial curve, poor fit] | – |
| Cc1ccc2nc(SCC(=O)Nc3ccccc3N3CCOCC3)c(C#N)cc2c1 | inconclusive: 29.1 µM [falling, single point] | – |
| CC(C)c1nc(SCC(=O)Nc2ccc([N+](=O)[O-])cc2Br)n[nH]1 | inconclusive: 32.6 µM [falling, single point] | – |
| CCc1cc(C(=O)Nc2ccc(C)cc2Br)cs1 | inconclusive: 8.2 µM [activator, partial curve] | – |
| COc1ccc(CNC(=O)c2ccc(-c3ccccc3)cc2)cc1OC | inconclusive: 2.31 µM [falling, full curve] | – |
| CN(CC1CCCO1)S(=O)(=O)c1ccc(C(=O)Nc2nc3cc4c(cc3s2)OCO4)cc1 (centres undefined) | inconclusive: 23.1 µM [falling, single point] | – |
| Nc1c(Cl)ncnc1N/N=C/c1ccc2ccccc2n1 | active: 13 µM | – |
| O=C(Nc1ccc(S(=O)(=O)N2CCCCC2)cc1)C1CCN(C(=O)c2ccc(F)cc2)CC1 | inconclusive: 29.1 µM [falling, single point] | – |
| Cc1cc2c(c(=O)o1)C(C(C)C)C(C#N)=C(N)O2 (centres undefined) | inconclusive: 13 µM [activator, partial curve, poor fit] | – |
| Cc1nnc2nc(-c3ccccc3)nc(-c3ccccc3)n12 | inconclusive: 3.66 µM [falling, full curve, poor fit] | – |
| CN(CC(=O)N(C)CC(=O)Nc1c(Cl)cccc1Cl)Cc1ccccc1F | – | inactive: 0.212% |

Single entries from the list:
Value for CC(C)Cn1cc(NC(=O)N2CCN(c3ccccc3F)CC2)c2ccccc2c1=O under Potency: inconclusive: 16.4 µM [activator, partial curve, poor fit]
Value for C=CCSc1nnc(-c2ccc([N+](=O)[O-])cc2)o1 under Potency: inconclusive: 11.6 µM [activator, partial curve, poor fit]
Value for O=C(COc1ccc(Cl)cc1)OCc1ccc(Cl)cc1 under activity change, negative = inhibition: inactive: 1.17%

More entries follow:

| SMILES | Potency | activity change, negative = inhibition |
| --- | --- | --- |
| O=C(Nc1ccc(Cl)cn1)c1ccc(COCC(F)(F)C(F)F)o1 | inconclusive: 4.61 µM [activator, full curve, poor fit] | – |
| CCCc1cc(C(=O)Nc2ccc(Cl)cn2)cs1 | inconclusive: 1.3 µM [activator, partial curve] | – |
| O=C(Cc1c(F)cccc1Cl)Nc1ccc(-n2cnnn2)cc1 | inconclusive: 16.4 µM [activator, partial curve, poor fit] | – |
| Cc1nn(C)c2c1c(-c1ccccc1)cc(=O)n2C(C)C(=O)NCc1ccc(F)cc1 (centres undefined) | inconclusive: 0.0731 µM [falling, full curve, poor fit] | – |
| O=C1CCC(C(=O)OCC(=O)c2ccccc2)N1 (centres undefined) | – | inactive: 3.88% |
| Cc1nnsc1C(=O)N/N=C/c1ccc2ccccc2c1O | inconclusive: 16.4 µM [falling, single point] | – |
| O=[N+]([O-])c1cc(C(F)(F)F)cc([N+](=O)[O-])c1NCCNC(=S)Nc1ccc(Cl)c(Cl)c1 | inconclusive: 29.1 µM [falling, single point] | – |
| c1ccc(-c2nnc(N3CCN(c4ccccn4)CC3)c3ccccc23)cc1 | active: 18.4 µM | – |
| O=c1ccn(-c2cccc(C(F)(F)F)c2)nc1-c1ccn(-c2ccccc2)n1 | inconclusive: 32.6 µM [falling, single point] | – |
| Nc1cc(C(=O)OCC(=O)N2CCOCC2)ccc1Cl | inconclusive: 23.1 µM [activator, single point] | – |
| O=C(/C=C/c1ccc2ccccc2n1)N1CCN(c2ccccc2)CC1 | inconclusive: 29.1 µM [activator, single point] | – |
| CC(=O)c1c(C)[nH]c(C(=O)OCC(=O)NCCC2=CCCCC2)c1C | inconclusive: 16.4 µM [falling, partial curve] | – |
| CCOc1cc(/C=C2/C(=O)N(c3ccccc3)N=C2C)ccc1OC(=O)c1cccs1 | – | inactive: 6.32% |
| c1ccc(-c2csc(N3CCOCC3)n2)cc1 | inconclusive: 14.6 µM [activator, partial curve] | – |
| COc1ccc(-c2cn3nc(N4CCCC(C(=O)NCc5ccccc5Cl)C4)sc3n2)cc1 (centres undefined) | inconclusive: 0.731 µM [activator, full curve, poor fit] | – |
| Cc1cc(Cl)nc2ccc(Cc3ccc4nc(Cl)cc(C)c4c3)cc12 | inconclusive: 13 µM [falling, partial curve, poor fit] | – |
| FC(F)(F)c1nnc2ccc(Sc3ccccn3)nn12 | inconclusive: 2.59 µM [falling, partial curve, poor fit] | – |
| COc1ccc(OC)c(CCNC(=O)c2cnn(-c3ccccc3)c2C2CCN(C(=O)OC(C)(C)C)CC2)c1 | inconclusive: 23.1 µM [falling, single point] | – |
| Nc1cc(=O)[nH]c(SCC(=O)c2ccc(O)cc2O)n1 | inconclusive: 25.9 µM [activator, single point] | – |
| COc1ccc(N(C)S(=O)(=O)c2cccc(C(=O)N3CCN(c4ccccc4)CC3)c2)cc1 | inconclusive: 23.1 µM [falling, partial curve, poor fit] | – |
| CC(C)[C@H](NC(=O)c1ccc(F)cc1)C(=O)NC1=NCCS1 | inconclusive: 29.1 µM [activator, single point] | – |
| Cc1ccc(S(=O)(=O)Cc2ccc(C(=O)NC3CCCCCC3)o2)cc1 | inconclusive: 29.1 µM [falling, single point] | – |

| SMILES | Potency | activity change, negative = inhibition |
| --- | --- | --- |
| COC(=O)c1cc2oc3ccccc3c2n1Cc1cc(C)ccc1C | inconclusive: 2.06 µM [activator, full curve, poor fit] | – |
| Nc1ccccc1C(=O)NCc1ccccc1 | inconclusive: 32.6 µM [activator, partial curve, poor fit] | – |
| CCCc1nnc(NC(=O)c2cc3ccccc3o2)s1 | inconclusive: 1.64 µM [activator, full curve] | – |
| COc1ccc(/C=N/Nc2cc(C)nc(NS(=O)(=O)c3ccc(C)cc3)n2)cc1 | inconclusive: 18.4 µM [activator, partial curve] | – |
| CC(C)N(C(=O)Nc1ccc2nsnc2c1)C(C)C | inconclusive: 16.4 µM [falling, single point] | – |
| Fc1ccc(-c2cn3cc(Cc4ccc(Cl)cc4)sc3n2)cc1 | inconclusive: 3.66 µM [activator, partial curve] | – |
| CCn1c(SCC(=O)NCCc2ccccc2)nc2c(c1=O)SC(C)C2 (centres undefined) | inconclusive: 32.6 µM [falling, partial curve, poor fit] | – |
| CCC(C(=O)Nc1cc(-c2nc3cccnc3s2)ccc1C)c1ccccc1 (centres undefined) | inconclusive: 2.59 µM [activator, partial curve, poor fit] | – |
| Clc1ccc(N=C2SCC3CCCCN23)cc1 (centres undefined) | inconclusive: 18.4 µM [activator, partial curve] | – |
| O=C(COc1ccc2c(c1)OCO2)Nc1ccccc1C(F)(F)F | inconclusive: 29.1 µM [activator, single point] | – |
| Cc1cccc(N2CCN(C(=O)CCn3c(=O)[nH]c4ccccc4c3=O)CC2)c1C | – | inactive: -24.7% |
| CC(=O)c1ccc(N2CCN(S(=O)(=O)c3ccc4[nH]c5c(c4c3)CCCC5)CC2)cc1 | inconclusive: 29.1 µM [falling, single point] | – |
| Cn1c(=O)c2c(nc(CN3CCN(C(=O)c4ccco4)CC3)n2CCCc2ccccc2)n(C)c1=O | inconclusive: 20.6 µM [falling, single point] | – |
| O=c1c2c(-c3ccc(Cl)cc3)ccnc2[nH]n1-c1ccccc1 | – | inactive: 0.693% |
| CCN1CCN(C(=O)COCc2cc(-c3ccc4c(c3)OCO4)on2)CC1 | inconclusive: 16.4 µM [activator, single point] | – |
| Cn1c(=O)c2c(nc3n2CC(COc2ccc(Cl)cc2)O3)n(C)c1=O (centres undefined) | inconclusive: 16.4 µM [falling, partial curve, poor fit] | – |
| CCN(Cc1ccccc1)Cc1c(O)ccc2c(=O)c(-c3ccccc3Cl)c(C(F)(F)F)oc12 | inconclusive: 14.6 µM [falling, partial curve] | – |
| CC1(C)Cc2nc3nc(SCC(=O)NCCc4ccccc4)n(-c4ccccc4)c(=O)c3cc2CO1 | – | inactive: 5.27% |
| Nc1ccc(CCc2nc3ccccc3o2)cc1 | inconclusive: 1.84 µM [activator, partial curve, poor fit] | – |
| C=Cc1c(C)c2cc3[nH]c(cc4nc(cc5nc(cc1[nH]2)C(C)=C5CCC(=O)O)C(CCC(=O)O)=C4C)c(C)c3C=C | inconclusive: 10.3 µM [falling, partial curve, poor fit] | – |
